Measured values taken from article PMC4941297.
No constants are given. Whether binding was seen depends on the method and setting. Binding seen in cells or lysates may run through a third protein. Some entries that bind do so weakly or less than the wild type.

Chains of the proteins cited; added tags and fusions are not shown. Lines headed by an entry give the natural chain unless they say otherwise; changes in a name come on top. A line that says so, or that is headed by a name, gives the form on record, which may keep a tag or linker.
UniProt P03372: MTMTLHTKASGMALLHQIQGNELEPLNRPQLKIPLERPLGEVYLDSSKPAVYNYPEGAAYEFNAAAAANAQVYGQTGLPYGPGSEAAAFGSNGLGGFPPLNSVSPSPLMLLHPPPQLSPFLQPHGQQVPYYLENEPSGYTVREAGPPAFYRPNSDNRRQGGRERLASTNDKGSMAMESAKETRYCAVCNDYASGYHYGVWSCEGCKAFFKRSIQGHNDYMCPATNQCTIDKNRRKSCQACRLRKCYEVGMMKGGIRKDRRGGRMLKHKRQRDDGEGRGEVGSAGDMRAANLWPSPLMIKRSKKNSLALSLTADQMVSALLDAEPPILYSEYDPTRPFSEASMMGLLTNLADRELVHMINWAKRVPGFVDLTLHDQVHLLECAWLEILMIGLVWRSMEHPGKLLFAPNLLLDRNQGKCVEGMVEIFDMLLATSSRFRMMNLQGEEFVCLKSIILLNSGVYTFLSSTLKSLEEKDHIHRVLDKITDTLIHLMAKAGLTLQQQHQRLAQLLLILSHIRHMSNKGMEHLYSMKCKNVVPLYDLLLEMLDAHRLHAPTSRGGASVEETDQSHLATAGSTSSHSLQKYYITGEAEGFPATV
MDM2/HDM2 (human (endogenous in ZR-75-1 and MCF7)) (Q00987-11, form named): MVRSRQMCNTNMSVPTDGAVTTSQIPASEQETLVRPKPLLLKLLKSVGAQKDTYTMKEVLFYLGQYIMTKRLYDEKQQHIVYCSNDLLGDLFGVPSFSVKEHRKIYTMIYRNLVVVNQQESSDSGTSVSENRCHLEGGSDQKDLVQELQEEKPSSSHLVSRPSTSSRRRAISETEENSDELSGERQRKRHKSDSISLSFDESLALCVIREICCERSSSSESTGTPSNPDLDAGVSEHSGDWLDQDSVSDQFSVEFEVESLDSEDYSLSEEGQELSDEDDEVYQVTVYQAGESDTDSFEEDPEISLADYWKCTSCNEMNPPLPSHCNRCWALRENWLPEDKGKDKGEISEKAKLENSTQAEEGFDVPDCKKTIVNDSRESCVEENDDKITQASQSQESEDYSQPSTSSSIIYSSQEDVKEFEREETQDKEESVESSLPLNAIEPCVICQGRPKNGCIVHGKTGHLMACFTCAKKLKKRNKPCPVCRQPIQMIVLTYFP

Legend:
Test in all cases: co-IP; endogenous proteins in ZR-75-1 and MCF7 lysates (20 mM Tris pH 8.0, 150 mM NaCl, 5 mM MgCl2, 0.5% NP40); 2.5 mg precleared lysate with 6 μg antibody overnight at 4°C, protein G agarose; western blot
[1] = biological target: Estrogen receptor alpha/estrogen receptor 1 (human (endogenous in ZR-75-1, MCF7 and patient breast tumor)) (UniProt P03372)
[2] = biological target: T1, MDM4/MDMX/HDMX (human (endogenous in ZR-75-1, MCF7 and patient breast tumor)) (UniProt O15151)
T1 sequence: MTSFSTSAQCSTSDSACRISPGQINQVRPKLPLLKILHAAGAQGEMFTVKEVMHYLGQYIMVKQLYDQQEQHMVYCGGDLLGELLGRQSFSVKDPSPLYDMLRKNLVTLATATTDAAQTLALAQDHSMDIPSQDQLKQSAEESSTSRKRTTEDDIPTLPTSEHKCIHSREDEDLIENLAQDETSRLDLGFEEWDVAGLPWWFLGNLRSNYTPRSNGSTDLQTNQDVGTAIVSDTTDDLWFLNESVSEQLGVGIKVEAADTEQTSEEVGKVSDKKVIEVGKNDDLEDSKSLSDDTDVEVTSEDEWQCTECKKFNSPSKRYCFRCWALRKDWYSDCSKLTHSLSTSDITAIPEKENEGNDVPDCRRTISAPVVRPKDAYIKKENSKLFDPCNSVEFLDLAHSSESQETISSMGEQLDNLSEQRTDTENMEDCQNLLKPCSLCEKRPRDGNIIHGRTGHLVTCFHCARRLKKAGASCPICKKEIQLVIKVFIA

[3] = biological target: MDM2/HDM2 (human (endogenous in ZR-75-1 and MCF7)) (UniProt Q00987)

Substance | binding [1] | binding [2] | binding [3]
MDM2/HDM2 (from UniProt Q00987-11 1-497) | binds | – | –
Estrogen receptor alpha/estrogen receptor 1 (from UniProt P03372-1 1-595) | – | binds | binds
